In patent US20250263499A1 (SHENGHE CHINA BIOPHARMACEUTICAL, published 2025):
No constants are given. Whether binding was seen depends on the method and setting. Some entries that bind do so weakly or less than the wild type.

Key:
[1] = molecular target: T1, CD24 on tumor cells (MCF7, SKOV3, HT55, huCD24-MDA-MB-231, CD24-SKOV3) (human) (UniProt P25063); assay: flow cytometry on MCF7 cells (MFI)
T1 sequence (looked up): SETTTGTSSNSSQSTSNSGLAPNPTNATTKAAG

[2] = molecular target: T1, CD24 on tumor cells (MCF7, SKOV3, HT55, huCD24-MDA-MB-231, CD24-SKOV3) (human); assay: flow cytometry on huCD24-MDA-MB-231 cells (MFI)

B1: humanized antibody hu-02-L1H7 (antibody, human IgG1, kappa, V domains shown)
VH: EVQLQESGPGLVKPSQTLSLTCTVSGYSITSGYTWHWIRQFPGNKLEWIGHIQYTGNTKYNPSLESRITISRDTSKNQFSLKLSSVTAADTATYYCARGSTNSNDYWGQGTLVTVSS
VL: DIVMTQSPDSLAVSLGERATINCKSSQSLLYSNDQKNYLAWYQQKPGQPPKLLIYWASTRESGVPDRFSGSGSGTDFTLTISSLQAEDVAVYYCQQYFIYPLTFGGGTKLELKR
notes: Humanized from ms-02: light chain L1, heavy chain H7
binding [1]: binds
binding [2]: binds
